Values quoted from earlier work in US20140038836A1, “Novel Pharmacogene Single Nucleotide Polymorphisms and Methods of Detecting Same” (priority 2012, published 2014).
At least one compound was matched to its structure with a doubt left.

Tests used:
[1] = system: FKBP5 gene promoter/intron; details: FKBP5 (FK506-binding protein 5), site AGAACAgggTGTTCT
DBI gene promoter/intron = details: DBI (diazepam binding inhibitor), site AGAACAttgGGTTTC
[2] = system: UGT8 gene promoter/intron; details: UGT8 (UDP glycosyltransferase 8), site AGAACAtttTGTACG
patients with MDD = details: T allele of rs10473984

Structure (SMILES) | Fold activation by Dexamethasone [1] [fold] | Fold activation by Dexamethasone (DBI gene promoter/intron) [fold] | Fold activation by Dexamethasone [2] [fold] | response to citalopram treatment (patients with MDD)
C[C@@H]1C[C@H]2[C@@H]3CCC4=CC(=O)C=C[C@]4(C)[C@@]3(F)[C@@H](O)C[C@]2(C)[C@@]1(O)C(=O)CO [Dexamethasone] | 5.9 ± 0.4 | 2.3 ± 0.4 | 8.2 ± 10 | –
CN(C)CCCC1(c2ccc(F)cc2)OCc2cc(C#N)ccc21 (stereo not shown) [citalopram] | – | – | – | poorer response
